Data taken from paper PMC10352378.
Results are given in words; binding and its absence hold for the method and conditions named. In cells and extracts the contact can be indirect. Some binding calls cover weakened binding; strength is not graded here.

Protein sequences, listed by entry. Tags and fused reporters are not part of them.
UniProt Q9Y490: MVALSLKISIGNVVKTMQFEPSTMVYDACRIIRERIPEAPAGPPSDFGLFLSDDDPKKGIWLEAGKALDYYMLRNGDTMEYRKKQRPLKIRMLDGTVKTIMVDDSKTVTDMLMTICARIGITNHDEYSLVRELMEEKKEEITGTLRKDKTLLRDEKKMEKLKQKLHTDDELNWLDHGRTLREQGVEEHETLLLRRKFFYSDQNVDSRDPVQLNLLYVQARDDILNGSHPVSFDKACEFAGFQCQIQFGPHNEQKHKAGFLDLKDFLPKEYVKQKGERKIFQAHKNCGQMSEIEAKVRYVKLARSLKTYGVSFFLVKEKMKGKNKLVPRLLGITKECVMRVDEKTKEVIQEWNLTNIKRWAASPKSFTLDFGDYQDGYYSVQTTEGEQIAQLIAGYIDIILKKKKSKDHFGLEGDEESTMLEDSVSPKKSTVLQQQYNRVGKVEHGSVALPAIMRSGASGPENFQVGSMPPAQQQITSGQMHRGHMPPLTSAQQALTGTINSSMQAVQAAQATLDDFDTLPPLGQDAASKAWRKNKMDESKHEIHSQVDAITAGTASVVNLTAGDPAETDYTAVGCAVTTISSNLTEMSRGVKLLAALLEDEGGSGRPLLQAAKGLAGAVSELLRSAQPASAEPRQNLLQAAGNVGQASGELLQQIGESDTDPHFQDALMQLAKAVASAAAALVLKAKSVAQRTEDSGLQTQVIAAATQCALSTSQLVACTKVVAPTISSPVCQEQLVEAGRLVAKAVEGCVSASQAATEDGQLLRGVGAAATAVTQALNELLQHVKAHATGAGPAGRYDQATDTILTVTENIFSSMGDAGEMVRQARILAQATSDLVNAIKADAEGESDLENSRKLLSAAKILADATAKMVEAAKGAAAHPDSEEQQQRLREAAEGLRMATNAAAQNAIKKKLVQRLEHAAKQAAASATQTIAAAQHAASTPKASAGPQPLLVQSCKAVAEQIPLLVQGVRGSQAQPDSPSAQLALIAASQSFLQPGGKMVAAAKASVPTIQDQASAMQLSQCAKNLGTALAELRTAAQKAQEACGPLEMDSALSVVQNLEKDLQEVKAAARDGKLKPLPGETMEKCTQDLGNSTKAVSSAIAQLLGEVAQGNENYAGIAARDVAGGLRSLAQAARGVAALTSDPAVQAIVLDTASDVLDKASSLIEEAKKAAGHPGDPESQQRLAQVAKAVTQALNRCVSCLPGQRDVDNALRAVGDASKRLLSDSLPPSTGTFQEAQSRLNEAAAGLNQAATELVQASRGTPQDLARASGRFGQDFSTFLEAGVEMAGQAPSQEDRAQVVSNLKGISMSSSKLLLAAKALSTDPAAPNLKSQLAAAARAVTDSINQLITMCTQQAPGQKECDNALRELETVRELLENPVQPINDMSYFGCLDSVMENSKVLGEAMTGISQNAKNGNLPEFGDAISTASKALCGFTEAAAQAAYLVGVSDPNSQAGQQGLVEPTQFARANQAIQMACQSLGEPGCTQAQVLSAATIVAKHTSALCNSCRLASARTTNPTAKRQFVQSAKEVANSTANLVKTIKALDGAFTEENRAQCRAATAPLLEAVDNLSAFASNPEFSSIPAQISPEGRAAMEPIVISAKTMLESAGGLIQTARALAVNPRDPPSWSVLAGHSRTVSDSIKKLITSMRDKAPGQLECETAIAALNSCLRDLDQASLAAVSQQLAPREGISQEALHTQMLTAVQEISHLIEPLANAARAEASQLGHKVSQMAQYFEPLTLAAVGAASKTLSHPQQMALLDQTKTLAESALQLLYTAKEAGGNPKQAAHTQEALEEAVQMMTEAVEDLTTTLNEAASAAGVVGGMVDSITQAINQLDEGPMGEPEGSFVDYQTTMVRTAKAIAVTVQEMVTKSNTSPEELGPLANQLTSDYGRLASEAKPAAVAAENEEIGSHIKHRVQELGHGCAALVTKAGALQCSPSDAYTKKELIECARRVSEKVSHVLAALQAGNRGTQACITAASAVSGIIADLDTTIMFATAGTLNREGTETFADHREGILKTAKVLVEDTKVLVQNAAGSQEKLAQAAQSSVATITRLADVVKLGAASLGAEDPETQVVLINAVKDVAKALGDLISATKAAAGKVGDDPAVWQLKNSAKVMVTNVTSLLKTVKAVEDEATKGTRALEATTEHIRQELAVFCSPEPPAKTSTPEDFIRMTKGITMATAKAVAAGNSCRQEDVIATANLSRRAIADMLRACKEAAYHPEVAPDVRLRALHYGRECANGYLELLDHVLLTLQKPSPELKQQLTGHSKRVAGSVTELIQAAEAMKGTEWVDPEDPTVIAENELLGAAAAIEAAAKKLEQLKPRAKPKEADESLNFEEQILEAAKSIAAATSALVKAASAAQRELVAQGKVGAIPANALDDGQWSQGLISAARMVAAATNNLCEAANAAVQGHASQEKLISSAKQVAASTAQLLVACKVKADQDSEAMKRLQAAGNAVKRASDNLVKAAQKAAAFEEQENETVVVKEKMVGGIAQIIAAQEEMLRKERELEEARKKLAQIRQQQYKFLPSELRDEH
UniProt P19474: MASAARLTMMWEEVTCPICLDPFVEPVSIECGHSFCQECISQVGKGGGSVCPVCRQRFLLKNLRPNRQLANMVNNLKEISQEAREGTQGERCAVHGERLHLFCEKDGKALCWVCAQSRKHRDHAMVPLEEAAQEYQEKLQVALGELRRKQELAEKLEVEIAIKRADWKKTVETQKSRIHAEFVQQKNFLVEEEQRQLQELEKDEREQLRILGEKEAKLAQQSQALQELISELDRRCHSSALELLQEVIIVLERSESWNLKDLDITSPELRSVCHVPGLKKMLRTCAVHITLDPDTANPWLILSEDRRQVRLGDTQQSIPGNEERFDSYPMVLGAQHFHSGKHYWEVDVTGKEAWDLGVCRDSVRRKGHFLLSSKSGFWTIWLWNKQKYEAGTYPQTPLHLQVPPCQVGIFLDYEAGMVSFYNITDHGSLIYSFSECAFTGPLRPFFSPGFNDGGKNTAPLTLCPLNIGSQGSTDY

Columns and labels:
[1] = target: talin1-Myc (UniProt Q9Y490); assay: co-IP; talin1-Myc and TRIM21-Flag co-expressed in HEK293T cells; IP with anti-Myc, blot for Flag
[2] = target: talin1-Myc (UniProt Q9Y490); assay: co-IP; HEK293T cells with talin1-Myc, Flag-TRIM21 and overexpressed HA-BCKDK; IP with anti-Myc antibody, IB for HA-BCKDK and Flag-TRIM21

binding [1]: binds
binding [2]: binds
Substance: TRIM21-Flag (from UniProt P19474 1-475) (enzyme)
